Data as given in patent EP0478631B1 (CANCER RESEARCH CAMPAIGN TECHNOLOGY LTD., priority 1989, dated 1991).
Where “and” joins values, the source holds several entries; their conditions need not be identical. Equal entries are not always repeated.

Test: general procedure: Fmoc solid-phase peptide synthesis; Pepsyn KB; Fmoc amino acid pentafluorophenyl esters with 1-hydroxybenzotriazole; benzotriaz
Conditions: whole synthesis, scale 0.2 mmoles

For DTPA-Nle-Asp-His-D-Phe-Arg-Trp-Lys-NH₂, the crude mass was 192 mg and the isolated mass (run 1) was 53 mg and 35 mg.
